Experimental findings from the supplement of paper PMC6411743 are described below.

The assay deals with T1, UniProt Q6IN85 and related entries.
T1 sequence (whole entry): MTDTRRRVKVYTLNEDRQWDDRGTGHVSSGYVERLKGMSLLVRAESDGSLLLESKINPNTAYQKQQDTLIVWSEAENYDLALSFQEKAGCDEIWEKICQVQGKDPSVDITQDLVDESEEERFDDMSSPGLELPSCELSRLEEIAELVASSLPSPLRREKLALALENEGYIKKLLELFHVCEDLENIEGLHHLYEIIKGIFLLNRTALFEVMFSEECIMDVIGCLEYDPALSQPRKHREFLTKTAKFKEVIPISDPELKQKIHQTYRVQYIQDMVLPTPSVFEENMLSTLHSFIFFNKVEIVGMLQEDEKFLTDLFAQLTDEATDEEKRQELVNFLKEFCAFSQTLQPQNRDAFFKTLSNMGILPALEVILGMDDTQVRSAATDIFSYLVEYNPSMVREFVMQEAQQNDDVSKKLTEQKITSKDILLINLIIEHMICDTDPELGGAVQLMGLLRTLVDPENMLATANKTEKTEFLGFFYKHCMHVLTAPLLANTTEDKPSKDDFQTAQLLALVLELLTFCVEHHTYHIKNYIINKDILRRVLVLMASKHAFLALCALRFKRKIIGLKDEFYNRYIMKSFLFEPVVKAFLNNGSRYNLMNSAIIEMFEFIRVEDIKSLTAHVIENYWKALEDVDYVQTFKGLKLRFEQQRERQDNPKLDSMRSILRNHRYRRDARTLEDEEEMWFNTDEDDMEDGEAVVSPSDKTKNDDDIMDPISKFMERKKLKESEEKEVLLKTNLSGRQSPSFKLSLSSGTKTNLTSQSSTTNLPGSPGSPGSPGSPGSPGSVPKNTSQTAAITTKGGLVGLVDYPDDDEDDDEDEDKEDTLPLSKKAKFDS
The assay can be described thus: NP40-soluble protein abundance relative to vehicle (solubility fold change) (ratio); higher = more soluble protein in presence of GTP. How it is done:
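Solubility proteome profiling in Jurkat crude lysate. Lysate was treated with Mg-GTP (0.1-10 mM) for 10 min at room temperature and 3 min at 37 °C, then solubilised with 0.8% NP40 and benzonase, followed by ultracentrifugation. Proteins were quantified by TMT10 LC-MS/MS; the value is the NP40-soluble abundance relative to the NP40-processed vehicle, from 3 independent experiments.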

± gives the standard deviation of the averaged measurements. This is one part of the list.

For the compound `Nc1nc2c(ncn2[C@@H]2O[C@H](COP(=O)(O)OP(=O)(O)OP(=O)(O)O)[C@@H](O)[C@H]2O)c(=O)[nH]1` [guanosine triphosphate], the NP40-soluble protein abundance (concentration: 0.1mM) came to 1.01 ± 0.059; the NP40-soluble protein abundance (concentration: 0.5mM) was found to be 1.05 ± 0.05; the NP40-soluble protein abundance (concentration: 1mM) is 0.986 ± 0.047; the NP40-soluble protein abundance (concentration: 2mM) was 0.971 ± 0.036; the NP40-soluble protein abundance (concentration: 4mM) stood at 0.941 ± 0.046; the NP40-soluble protein abundance (concentration: 6mM) was found to be 0.939 ± 0.031. The NP40-soluble protein abundance (concentration: 8mM) came out at 0.97 ± 0.026 and the NP40-soluble protein abundance (concentration: 10mM) came out at 0.92 ± 0.059.
